Measured values: article doi:10.1101/2021.02.09.430442 (bioRxiv, 2021)
No constants are given. Whether binding was seen depends on the method and setting. For some assays here: Binding seen in cells or lysates may run through a third protein. Some results given as binding are weak or reduced against the parent protein; the word gives no strength. Sequences can lack the tags named with a protein.

T1: GST-Stx12 (human) (UniProt Q86Y82)
T1 sequence: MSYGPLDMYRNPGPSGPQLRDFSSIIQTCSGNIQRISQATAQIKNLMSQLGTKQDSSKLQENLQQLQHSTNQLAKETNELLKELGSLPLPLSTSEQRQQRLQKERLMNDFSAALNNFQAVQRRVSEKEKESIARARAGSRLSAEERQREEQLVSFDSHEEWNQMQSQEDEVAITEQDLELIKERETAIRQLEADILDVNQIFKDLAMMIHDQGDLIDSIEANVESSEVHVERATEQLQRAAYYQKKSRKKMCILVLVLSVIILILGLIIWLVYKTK

T2: GST-VAMP4 (human) (UniProt O75379)
T2 sequence: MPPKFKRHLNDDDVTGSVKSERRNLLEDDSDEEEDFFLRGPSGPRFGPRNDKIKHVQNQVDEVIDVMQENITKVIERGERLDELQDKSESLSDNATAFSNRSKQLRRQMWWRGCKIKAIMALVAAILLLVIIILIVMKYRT


Tests used:
GST-Stx12 (human) = biological target: T1, GST-Stx12 (human); assay: pull-down
GST-VAMP4 (human) = biological target: T2, GST-VAMP4 (human); assay: pull-down

Row | binding (GST-Stx12 (human)) | binding (GST-VAMP4 (human)) | Binder
1 | binds | – | endogenous SNARE protein Stx6 (protein, UniProt Q9JKK1 1-255) MSMEDPFFVVKGEVQKAVNTAQGLFQRWTELLQGPSAATREEIDWTTNELRNNLRSIEWDLEDLDETISIVEANPRKFNLDATELSIRKAFITSTRQIVRDMKDQMSASSVQALAERKNRQALLGDSSSQSWNAGVADRYGRLDRELQLANSHFIEEQQAQQQLIVEQQDEQLELVSGSIGVLKNMSQRIGGELEEQAVMLDDFSHELESTQSRLDNVMKKLAKVSHMTSDRRQWCAIAILFAVLVVVLILFLVL
2 | – | binds | Recombinant human Syntaxin12 (protein, UniProt Q86Y82 1-276) MSYGPLDMYRNPGPSGPQLRDFSSIIQTCSGNIQRISQATAQIKNLMSQLGTKQDSSKLQENLQQLQHSTNQLAKETNELLKELGSLPLPLSTSEQRQQRLQKERLMNDFSAALNNFQAVQRRVSEKEKESIARARAGSRLSAEERQREEQLVSFDSHEEWNQMQSQEDEVAITEQDLELIKERETAIRQLEADILDVNQIFKDLAMMIHDQGDLIDSIEANVESSEVHVERATEQLQRAAYYQKKSRKKMCILVLVLSVIILILGLIIWLVYKTK
